Laboratory results published in PMC7555428.
Results are given in words; binding and its absence hold for the method and conditions named. In cells and extracts the contact can be indirect. Some entries that bind do so weakly or less than the wild type. Each block holds one molecule with its values, some of them ahead of it.

Protein sequences, listed by entry. Tags and fused reporters are not part of them.
UniProt Q9Z330: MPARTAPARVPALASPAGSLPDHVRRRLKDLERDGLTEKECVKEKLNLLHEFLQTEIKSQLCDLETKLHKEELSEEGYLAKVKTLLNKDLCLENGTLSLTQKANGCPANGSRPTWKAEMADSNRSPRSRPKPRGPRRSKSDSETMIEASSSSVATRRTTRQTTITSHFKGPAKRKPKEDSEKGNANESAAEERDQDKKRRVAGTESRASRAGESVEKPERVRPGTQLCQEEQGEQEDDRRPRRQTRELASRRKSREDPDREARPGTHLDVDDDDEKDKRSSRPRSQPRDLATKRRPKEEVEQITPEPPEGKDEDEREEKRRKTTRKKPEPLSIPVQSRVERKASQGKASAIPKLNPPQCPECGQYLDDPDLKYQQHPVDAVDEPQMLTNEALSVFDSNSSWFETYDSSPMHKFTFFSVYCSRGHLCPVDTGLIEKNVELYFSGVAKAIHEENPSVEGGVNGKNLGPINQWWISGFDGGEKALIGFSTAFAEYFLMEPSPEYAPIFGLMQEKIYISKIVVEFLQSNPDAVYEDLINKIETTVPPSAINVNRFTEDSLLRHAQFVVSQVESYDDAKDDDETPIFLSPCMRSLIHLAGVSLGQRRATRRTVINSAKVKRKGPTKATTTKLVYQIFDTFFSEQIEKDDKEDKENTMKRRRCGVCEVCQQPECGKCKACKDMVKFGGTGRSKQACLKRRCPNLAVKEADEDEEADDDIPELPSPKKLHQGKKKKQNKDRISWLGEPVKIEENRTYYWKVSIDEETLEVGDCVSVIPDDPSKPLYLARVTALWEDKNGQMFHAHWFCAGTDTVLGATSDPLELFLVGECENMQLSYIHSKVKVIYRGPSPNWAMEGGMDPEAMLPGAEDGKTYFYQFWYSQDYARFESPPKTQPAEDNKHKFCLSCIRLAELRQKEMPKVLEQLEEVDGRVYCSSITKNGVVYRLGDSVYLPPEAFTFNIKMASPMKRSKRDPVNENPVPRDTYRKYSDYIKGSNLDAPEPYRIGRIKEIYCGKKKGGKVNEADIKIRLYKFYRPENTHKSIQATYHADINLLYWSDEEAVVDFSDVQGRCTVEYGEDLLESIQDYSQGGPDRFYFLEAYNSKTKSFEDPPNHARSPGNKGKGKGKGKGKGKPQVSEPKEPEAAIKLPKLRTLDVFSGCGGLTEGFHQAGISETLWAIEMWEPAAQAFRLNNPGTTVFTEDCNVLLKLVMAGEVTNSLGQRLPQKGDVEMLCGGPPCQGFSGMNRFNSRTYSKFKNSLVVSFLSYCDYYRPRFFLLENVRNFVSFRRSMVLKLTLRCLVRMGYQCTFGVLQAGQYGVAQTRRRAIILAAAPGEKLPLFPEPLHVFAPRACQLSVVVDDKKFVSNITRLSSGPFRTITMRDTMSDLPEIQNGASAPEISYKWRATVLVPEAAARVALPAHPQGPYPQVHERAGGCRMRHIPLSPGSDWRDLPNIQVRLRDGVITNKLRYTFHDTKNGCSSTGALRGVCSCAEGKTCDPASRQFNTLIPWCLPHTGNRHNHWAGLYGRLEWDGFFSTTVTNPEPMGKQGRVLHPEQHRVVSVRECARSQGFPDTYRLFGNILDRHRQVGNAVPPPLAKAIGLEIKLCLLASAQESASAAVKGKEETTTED

Tests used:
[1] = target: T1, NAD-dependent deacetylase sirtuin-1 (rat (endogenous in INS-1E)); assay: co-IP; whole INS-1E cell lysates (500 ug protein; 20 mM Tris pH 8.0, 75 mM NaCl, 15 mM MgCl2, 1 mM EDTA, 0.5% Nonidet P-40, 10% glycerol) incubated overnight at 4 °C with protein A/G PLUS-agarose beads and 1 ug of SIRT1 or DNMT1 antibody or IgG alone; six washes; Western blot; for the anti-DNMT1 precipitates cells were untreated or treated with the SCD1 inhibitor and palmitate (16:0)
T1 sequence: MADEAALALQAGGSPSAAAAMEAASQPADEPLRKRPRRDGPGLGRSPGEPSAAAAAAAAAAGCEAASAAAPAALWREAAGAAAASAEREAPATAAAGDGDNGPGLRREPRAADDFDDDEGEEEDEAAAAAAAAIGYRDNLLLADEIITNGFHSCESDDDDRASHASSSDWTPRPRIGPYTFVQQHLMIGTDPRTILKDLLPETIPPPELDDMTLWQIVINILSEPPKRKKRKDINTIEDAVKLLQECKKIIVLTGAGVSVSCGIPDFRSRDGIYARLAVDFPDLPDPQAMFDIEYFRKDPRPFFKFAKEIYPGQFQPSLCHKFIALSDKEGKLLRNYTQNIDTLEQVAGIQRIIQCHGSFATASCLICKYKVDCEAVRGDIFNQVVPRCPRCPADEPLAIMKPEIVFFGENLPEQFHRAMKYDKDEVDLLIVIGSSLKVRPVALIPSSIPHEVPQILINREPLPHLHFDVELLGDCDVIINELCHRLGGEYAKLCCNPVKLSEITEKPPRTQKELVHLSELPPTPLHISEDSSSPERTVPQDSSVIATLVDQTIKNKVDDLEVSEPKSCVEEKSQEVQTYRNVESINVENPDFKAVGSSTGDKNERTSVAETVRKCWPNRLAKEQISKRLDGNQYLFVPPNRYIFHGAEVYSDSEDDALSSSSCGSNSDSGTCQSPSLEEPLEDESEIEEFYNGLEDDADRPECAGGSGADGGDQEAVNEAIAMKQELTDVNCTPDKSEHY

[2] = target: DNA methyltransferase 1 (rat (endogenous in INS-1E)) (UniProt Q9Z330); assay: as above

binding [1]: binds
Molecule: DNA methyltransferase 1 (from UniProt Q9Z330 1-1622)

binding [2]: binds
B1: NAD-dependent deacetylase sirtuin-1 (protein, UniProt A0A0G2JZ79 1-741)
chain: T1 sequence
